These are yes or no findings as the source states them, for the method shown. Binding seen in cells or lysates may run through a third protein. A yes stands for co-enrichment or nearness to the bait. Other partners may have been found. A no says only that the protein was not detected with the bait.

Amino acid sequences for entries named in this document (tags omitted).
UniProt P12956: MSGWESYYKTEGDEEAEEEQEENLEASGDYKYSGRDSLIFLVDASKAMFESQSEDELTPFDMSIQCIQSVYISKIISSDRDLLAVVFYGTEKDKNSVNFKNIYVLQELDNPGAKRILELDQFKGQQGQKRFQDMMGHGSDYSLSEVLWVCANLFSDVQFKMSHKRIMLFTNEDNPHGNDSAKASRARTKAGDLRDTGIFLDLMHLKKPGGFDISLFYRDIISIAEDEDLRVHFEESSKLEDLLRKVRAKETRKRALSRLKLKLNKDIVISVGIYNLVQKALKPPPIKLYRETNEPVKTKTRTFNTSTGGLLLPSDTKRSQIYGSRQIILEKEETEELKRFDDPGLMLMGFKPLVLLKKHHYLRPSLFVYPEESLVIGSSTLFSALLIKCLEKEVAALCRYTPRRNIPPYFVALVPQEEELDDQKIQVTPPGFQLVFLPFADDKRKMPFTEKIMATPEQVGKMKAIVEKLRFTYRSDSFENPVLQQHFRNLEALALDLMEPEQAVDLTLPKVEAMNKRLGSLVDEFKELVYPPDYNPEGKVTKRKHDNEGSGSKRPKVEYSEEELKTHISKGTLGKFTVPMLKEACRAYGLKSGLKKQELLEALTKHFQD
UniProt Q99459: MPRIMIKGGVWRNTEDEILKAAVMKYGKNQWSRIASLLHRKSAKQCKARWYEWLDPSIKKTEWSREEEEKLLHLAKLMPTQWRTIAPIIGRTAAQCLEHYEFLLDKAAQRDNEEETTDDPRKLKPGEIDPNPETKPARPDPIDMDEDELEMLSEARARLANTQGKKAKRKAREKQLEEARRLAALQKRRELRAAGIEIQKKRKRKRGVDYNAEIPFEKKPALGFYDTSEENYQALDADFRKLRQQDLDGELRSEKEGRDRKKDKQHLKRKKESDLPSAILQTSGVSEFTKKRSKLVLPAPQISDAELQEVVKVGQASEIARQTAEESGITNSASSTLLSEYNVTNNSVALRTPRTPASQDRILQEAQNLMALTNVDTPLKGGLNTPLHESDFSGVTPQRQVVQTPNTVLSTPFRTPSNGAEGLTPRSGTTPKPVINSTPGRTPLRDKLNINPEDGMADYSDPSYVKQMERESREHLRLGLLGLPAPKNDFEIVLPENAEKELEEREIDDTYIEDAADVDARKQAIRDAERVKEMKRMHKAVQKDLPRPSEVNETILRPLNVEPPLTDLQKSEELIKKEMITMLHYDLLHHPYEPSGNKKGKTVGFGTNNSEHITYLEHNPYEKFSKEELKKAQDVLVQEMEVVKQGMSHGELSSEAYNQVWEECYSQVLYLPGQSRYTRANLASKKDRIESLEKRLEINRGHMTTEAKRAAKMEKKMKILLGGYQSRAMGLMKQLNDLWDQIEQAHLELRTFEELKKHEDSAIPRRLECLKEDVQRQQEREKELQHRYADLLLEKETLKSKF
UniProt P09874: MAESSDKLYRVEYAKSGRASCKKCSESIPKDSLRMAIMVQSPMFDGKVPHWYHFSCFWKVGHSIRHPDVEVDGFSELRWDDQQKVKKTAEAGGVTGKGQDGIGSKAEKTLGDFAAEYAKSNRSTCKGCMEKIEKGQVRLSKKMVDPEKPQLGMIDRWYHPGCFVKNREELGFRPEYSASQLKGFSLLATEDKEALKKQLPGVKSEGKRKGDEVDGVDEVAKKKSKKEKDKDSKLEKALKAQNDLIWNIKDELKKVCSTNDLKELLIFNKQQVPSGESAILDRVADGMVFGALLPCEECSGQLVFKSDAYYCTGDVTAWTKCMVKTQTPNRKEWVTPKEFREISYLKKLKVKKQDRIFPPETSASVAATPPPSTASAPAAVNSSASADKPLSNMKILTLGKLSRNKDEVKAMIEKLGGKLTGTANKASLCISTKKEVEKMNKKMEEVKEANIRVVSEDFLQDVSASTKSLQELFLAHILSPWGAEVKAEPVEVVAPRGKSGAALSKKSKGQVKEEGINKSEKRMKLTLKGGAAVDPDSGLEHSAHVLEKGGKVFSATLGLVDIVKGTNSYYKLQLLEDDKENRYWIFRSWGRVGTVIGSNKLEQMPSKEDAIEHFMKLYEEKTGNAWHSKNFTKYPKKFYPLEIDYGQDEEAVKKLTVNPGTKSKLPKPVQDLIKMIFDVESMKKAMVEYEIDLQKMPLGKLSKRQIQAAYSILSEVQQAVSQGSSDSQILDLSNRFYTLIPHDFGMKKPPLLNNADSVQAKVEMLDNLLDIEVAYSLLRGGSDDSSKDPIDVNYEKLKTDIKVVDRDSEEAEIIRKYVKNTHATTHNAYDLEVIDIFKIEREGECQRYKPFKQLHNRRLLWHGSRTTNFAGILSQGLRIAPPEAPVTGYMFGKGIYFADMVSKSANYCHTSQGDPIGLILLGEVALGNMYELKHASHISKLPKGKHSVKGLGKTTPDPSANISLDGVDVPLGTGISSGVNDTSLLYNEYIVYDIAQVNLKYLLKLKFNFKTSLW
UniProt Q9Y265: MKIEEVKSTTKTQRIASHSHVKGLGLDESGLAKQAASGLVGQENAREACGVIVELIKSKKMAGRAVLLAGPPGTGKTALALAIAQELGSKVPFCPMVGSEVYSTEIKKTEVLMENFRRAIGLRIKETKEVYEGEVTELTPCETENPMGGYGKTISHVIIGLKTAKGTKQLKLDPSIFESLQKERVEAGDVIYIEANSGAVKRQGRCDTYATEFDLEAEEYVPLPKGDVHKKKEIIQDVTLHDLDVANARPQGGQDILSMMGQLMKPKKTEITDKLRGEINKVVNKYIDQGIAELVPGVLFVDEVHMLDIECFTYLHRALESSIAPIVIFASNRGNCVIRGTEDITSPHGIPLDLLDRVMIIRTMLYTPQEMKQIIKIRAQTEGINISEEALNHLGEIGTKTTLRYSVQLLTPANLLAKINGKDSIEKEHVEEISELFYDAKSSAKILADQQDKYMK
UniProt P13010: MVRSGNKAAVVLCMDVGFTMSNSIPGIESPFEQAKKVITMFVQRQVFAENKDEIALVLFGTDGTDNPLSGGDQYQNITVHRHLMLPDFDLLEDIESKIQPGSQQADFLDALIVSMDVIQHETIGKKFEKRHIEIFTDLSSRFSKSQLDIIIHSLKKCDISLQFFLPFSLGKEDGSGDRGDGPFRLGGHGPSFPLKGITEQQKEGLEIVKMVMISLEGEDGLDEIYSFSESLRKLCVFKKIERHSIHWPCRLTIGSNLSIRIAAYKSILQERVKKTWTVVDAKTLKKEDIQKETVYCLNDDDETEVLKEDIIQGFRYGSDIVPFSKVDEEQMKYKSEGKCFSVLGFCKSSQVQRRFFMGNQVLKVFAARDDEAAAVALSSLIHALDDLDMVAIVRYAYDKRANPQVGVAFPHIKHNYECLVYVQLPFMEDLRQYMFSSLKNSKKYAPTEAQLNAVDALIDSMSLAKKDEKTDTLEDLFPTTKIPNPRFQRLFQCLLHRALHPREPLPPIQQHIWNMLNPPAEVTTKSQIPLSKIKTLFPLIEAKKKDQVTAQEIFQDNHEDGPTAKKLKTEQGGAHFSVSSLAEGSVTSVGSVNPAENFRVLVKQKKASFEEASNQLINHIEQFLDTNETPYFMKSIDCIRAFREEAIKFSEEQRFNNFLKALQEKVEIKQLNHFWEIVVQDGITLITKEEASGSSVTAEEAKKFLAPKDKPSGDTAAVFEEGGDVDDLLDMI
UniProt Q8TBF4: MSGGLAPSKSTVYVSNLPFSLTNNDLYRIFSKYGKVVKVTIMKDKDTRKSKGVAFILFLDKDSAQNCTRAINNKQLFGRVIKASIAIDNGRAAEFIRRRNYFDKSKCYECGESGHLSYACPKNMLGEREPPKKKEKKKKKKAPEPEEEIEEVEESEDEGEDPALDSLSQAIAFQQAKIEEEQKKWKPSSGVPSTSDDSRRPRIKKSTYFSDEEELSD

First the molecules themselves.
T1: PDCD7 (human (endogenous in C4-2)) (UniProt Q8N8D1)
T1 sequence: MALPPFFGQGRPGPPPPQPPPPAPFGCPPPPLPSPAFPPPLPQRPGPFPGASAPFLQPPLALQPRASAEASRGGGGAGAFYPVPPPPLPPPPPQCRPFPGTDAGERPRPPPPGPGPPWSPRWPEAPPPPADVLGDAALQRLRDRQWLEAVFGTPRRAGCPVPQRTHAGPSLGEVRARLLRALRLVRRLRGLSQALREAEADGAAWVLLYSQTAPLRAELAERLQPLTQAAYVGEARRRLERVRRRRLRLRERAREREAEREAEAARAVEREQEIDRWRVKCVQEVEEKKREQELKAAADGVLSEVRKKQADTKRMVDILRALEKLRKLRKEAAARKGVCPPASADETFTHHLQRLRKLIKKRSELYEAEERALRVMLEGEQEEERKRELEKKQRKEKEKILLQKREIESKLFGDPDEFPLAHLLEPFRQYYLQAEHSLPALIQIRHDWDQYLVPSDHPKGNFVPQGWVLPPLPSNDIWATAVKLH

B1: SRSF2 (protein, UniProt Q01130 1-221)
chain: MSYGRPPPDVEGMTSLKVDNLTYRTSPDTLRRVFEKYGRVGDVYIPRDRYTKESRGFAFVRFHDKRDAEDAMDAMDGAVLDGRELRVQMARYGRPPDSHHSRRGPPPRRYGGGGYGRRSRSPRRRRRSRSRSRSRSRSRSRSRYSRSKSRSRTRSRSRSTSKSRSARRSKSKSSSVSRSRSRSRSRSRSRSPPPVSKRESKSRSRSKSPPKSPEEEGAVSS
B2: ARMC7 (protein, UniProt Q9H6L4 1-198)
chain: MAQKPKVDPHVGRLGYLQALVTEFQETQSQDAKEQVLANLANFAYDPSNYEYLRQLQVLDLFLDSLSEENETLVEFAIGGLCNLCPDRANKEHILHAGGVPLIINCLSSPNEETVLSAITTLMHLSPPGRSFLPELTATPVVQCMLRFSLSASARLRNLAQIFLEDFCSPRQVAEARSRQAHSALGIPLPRSVAPRQR
B3: ZMAT5 (protein, UniProt Q9UDW3 1-170)
chain: MGKRYFCDYCDRSFQDNLHNRKKHLNGLQHLKAKKVWYDMFRDAAAILLDEQNKRPCRKFLLTGQCDFGSNCRFSHMSERDLQELSIQVEEERRAREWLLDAPELPEGHLEDWLEKRAKRLSSAPSSRAEPIRTTVFQYPVGWPPVQELPPSLRAPPPGGWPLQPRVQWG
B4: SNRNP35 (protein, UniProt Q16560 1-246)
chain: MNDWMPIAKEYDPLKAGSIDGTDEDPHDRAVWRAMLARYVPNKGVIGDPLLTLFVARLNLQTKEDKLKEVFSRYGDIRRLRLVRDLVTGFSKGYAFIEYKEERAVIKAYRDADGLVIDQHEIFVDYELERTLKGWIPRRLGGGLGGKKESGQLRFGGRDRPFRKPINLPVVKNDLYREGKRERRERSRSRERHWDSRTRDRDHDRGREKRWQEREPTRVWPDNDWERERDFRDDRIKGREKKERGK
B5: RNPC3 (protein, UniProt Q96LT9 1-517)
chain: MAAPEQPLAISRGCTSSSSLSPPRGDRTLLVRHLPAELTAEEKEDLLKYFGAQSVRVLSDKGRLKHTAFATFPNEKAAIKALTRLHQLKLLGHTLVVEFAKEQDRVHSPCPTSGSEKKKRSDDPVEDDKEKKELGYLTVENGIAPNHGLTFPLNSCLKYMYPPPSSTILANIVNALASVPKFYVQVLHLMNKMNLPTPFGPITARPPMYEDYMPLHAPLPPTSPQPPEEPPLPDEDEELSSEESEYESTDDEDRQRMNKLMELANLQPKRPKTIKQRHVRKKRKIKDMLNTPLCPSHSSLHPVLLPSDVFDQPQPVGNKRIEFHISTDMPAAFKKDLEKEQNCEEKNHDLPATEVDASNIGFGKIFPKPNLDITEEIKEDSDEMPSECISRRELEKGRISREEMETLSVFRSYEPGEPNCRIYVKNLAKHVQEKDLKYIFGRYVDFSSETQRIMFDIRLMKEGRMKGQAFIGLPNEKAAAKALKEANGYVLFGKPMVVQFARSARPKQDPKEGKRKC
B6: ZRSR2 (protein, UniProt Q15696 1-482)
chain: MAAPEKMTFPEKPSHKKYRAALKKEKRKKRRQELARLRDSGLSQKEEEEDTFIEEQQLEEEKLLERERQRLHEEWLLREQKAQEEFRIKKEKEEAAKKRQEEQERKLKEQWEEQQRKEREEEEQKRQEKKEKEEALQKMLDQAENELENGTTWQNPEPPVDFRVMEKDRANCPFYSKTGACRFGDRCSRKHNFPTSSPTLLIKSMFTTFGMEQCRRDDYDPDASLEYSEEETYQQFLDFYEDVLPEFKNVGKVIQFKVSCNLEPHLRGNVYVQYQSEEECQAALSLFNGRWYAGRQLQCEFCPVTRWKMAICGLFEIQQCPRGKHCNFLHVFRNPNNEFWEANRDIYLSPDRTGSSFGKNSERRERMGHHDDYYSRLRGRRNPSPDHSYKRNGESERKSSRHRGKKSHKRTSKSRERHNSRSRGRNRDRSRDRSRGRGSRSRSRSRSRRSRRSRSQSSSRSRSRGRRRSGNRDRTVQSPKSK

The target in this assay is T1, PDCD7 (human (endogenous in C4-2)). The assay is described as follows: affinity purification with mass spectrometry.
For XRCC6 (from UniProt P12956 1-609), the binding entry was “binds”.

For the molecule CDC5L (from UniProt Q99459 1-802), the binding entry was “binds”.

With PARP1 (from UniProt P09874 1-1014), the binding result is “binds”.

Turning to RUVBL1 (from UniProt Q9Y265 1-456), the binding result was “binds”.

For PRKDC (from UniProt P78527 1-4128), the binding result is “binds”.

Regarding XRCC5 (from UniProt P13010 1-732), the binding entry is given as “binds”.

Turning to ZCRB1 (from UniProt Q8TBF4 1-217), the binding entry is given as “no binding”.

On to B1, for which the binding entry is listed as “binds”.

For B2, the binding entry is listed as “no binding”.

In the case of B3, the binding entry is reported as “binds”.

For the molecule B4, the binding result is on record as “binds”.

Turning to B5, the binding entry is reported as “binds”.

As for B6, the binding result is listed as “no binding”.
